The results in this text go back to publication PMC9228878.

Amino acid sequences for entries named in this document (tags omitted). Residues count along the entry.
UniProt P03665, residues 22-426: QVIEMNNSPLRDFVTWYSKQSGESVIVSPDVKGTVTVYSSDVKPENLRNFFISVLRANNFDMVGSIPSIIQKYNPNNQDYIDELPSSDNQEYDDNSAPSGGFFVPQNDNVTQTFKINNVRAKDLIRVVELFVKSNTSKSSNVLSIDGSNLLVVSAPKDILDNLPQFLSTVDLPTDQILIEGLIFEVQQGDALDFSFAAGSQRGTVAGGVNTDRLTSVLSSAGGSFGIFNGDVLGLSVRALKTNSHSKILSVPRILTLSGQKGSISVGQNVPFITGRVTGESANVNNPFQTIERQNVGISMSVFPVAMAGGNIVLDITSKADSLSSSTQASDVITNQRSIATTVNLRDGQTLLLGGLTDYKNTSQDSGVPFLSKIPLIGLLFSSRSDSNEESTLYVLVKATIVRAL

These are yes or no findings as the source states them, for the method shown. In cells and extracts the contact can be indirect. Tags and fused reporters may be left off the sequences shown.

This assay deals with T1, HisG1p (M13 gene 1 protein with an N-terminal 10xhis tag) (bacteriophage M13) (UniProt P03656).
T1 sequence: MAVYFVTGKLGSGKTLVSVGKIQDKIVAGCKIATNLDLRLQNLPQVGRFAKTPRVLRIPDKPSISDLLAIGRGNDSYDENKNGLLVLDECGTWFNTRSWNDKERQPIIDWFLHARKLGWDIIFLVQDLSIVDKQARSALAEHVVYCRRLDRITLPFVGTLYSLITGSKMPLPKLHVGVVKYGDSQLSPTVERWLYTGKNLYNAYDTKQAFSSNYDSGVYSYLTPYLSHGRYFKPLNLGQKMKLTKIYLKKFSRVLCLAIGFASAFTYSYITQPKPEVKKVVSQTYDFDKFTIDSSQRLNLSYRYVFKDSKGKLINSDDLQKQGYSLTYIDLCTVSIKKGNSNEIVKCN
Nature of the assay: pull-down; Ni-NTA affinity chromatography by the his tag from membranes of E. coli M15F+ (infected with M13am1) solubilised with 2% lauroyl sarcosine; beads with 10 mM imidazole and 10% glycerol, 1.5 h, 4 °C; imidazole elution; fractions on SDS-PAGE, Coomassie.

Consider “G4p secretin of bacteriophage M13 (from UniProt P03665 22-426)”, for which the binding entry is on record as “no binding”.
